In PMC12848939:
These are yes or no findings as the source states them, for the method shown. Some results given as binding are weak or reduced against the parent protein; the word gives no strength. Tags and fused reporters may be left off the sequences shown.

T1: Kre33 (yeast two-hybrid fusion) (S. cerevisiae) (UniProt P53914)
T1 sequence: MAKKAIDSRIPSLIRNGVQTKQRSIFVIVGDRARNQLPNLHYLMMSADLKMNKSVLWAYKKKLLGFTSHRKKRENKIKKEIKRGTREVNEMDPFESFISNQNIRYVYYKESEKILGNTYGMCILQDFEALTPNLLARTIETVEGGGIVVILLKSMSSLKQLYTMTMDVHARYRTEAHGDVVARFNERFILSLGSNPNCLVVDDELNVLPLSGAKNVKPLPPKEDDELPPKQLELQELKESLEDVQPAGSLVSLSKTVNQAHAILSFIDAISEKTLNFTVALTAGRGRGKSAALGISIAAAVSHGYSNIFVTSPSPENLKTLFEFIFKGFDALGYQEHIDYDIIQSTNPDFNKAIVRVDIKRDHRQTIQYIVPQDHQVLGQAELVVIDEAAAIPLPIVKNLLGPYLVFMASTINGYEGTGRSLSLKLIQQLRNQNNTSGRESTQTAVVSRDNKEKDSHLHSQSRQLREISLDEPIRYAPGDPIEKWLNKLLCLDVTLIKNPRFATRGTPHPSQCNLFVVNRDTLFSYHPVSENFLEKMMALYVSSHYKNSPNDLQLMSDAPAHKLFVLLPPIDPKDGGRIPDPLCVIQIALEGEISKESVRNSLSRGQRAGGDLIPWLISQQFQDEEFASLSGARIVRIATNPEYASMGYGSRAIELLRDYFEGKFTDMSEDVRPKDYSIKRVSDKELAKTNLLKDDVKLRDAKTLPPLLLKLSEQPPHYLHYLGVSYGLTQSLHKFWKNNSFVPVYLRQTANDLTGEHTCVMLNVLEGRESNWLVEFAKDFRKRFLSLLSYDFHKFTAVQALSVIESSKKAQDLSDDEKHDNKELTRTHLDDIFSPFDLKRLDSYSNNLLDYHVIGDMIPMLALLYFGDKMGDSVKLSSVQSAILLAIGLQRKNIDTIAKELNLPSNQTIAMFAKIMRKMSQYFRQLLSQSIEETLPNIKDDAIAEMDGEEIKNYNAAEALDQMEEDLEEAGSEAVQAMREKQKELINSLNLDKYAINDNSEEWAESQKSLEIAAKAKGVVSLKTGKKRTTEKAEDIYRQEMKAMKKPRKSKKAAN

T2: Tan1 (yeast two-hybrid fusion) (S. cerevisiae) (UniProt P53072)
T2 sequence: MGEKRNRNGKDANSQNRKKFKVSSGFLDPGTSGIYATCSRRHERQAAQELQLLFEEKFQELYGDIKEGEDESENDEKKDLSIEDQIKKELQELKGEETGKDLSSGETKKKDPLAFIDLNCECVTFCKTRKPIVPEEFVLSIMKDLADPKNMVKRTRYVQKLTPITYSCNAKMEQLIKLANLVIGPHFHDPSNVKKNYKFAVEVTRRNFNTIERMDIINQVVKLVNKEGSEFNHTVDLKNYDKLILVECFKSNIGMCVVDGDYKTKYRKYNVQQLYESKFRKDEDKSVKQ


Columns and labels:
[1] = biological target: T1, Kre33 (yeast two-hybrid fusion) (S. cerevisiae); test: two-hybrid; Gal4 yeast two-hybrid in strain PJ69-4A; bait with Gal4 DNA-binding domain (BDN), prey with Gal4 activation domain (ADC); growth on -His (weak) or -Ade (strong) plates, 3 days at 30°C
[2] = biological target: T2, Tan1 (yeast two-hybrid fusion) (S. cerevisiae); test: as above

| binding [1] | binding [2] | Binder |
| --- | --- | --- |
| binds |  | Tan1 (yeast two-hybrid fusion) (protein, UniProt P53072 1-289) MGEKRNRNGKDANSQNRKKFKVSSGFLDPGTSGIYATCSRRHERQAAQELQLLFEEKFQELYGDIKEGEDESENDEKKDLSIEDQIKKELQELKGEETGKDLSSGETKKKDPLAFIDLNCECVTFCKTRKPIVPEEFVLSIMKDLADPKNMVKRTRYVQKLTPITYSCNAKMEQLIKLANLVIGPHFHDPSNVKKNYKFAVEVTRRNFNTIERMDIINQVVKLVNKEGSEFNHTVDLKNYDKLILVECFKSNIGMCVVDGDYKTKYRKYNVQQLYESKFRKDEDKSVKQ |
| binds | no binding | Sni445 (yeast two-hybrid fusion) (protein, UniProt P53952 1-270) MSEFKIVSRKDLYNEGEGLGEDYDSNSSSKNNSEHVEVLVPPTEFEFVEVERTDSSLDLKESNNSAHEQKEEKQEEFEFPLFSFGVVEASTSPAQEEQGSSTQEKDTPQTEVSLMKISLKEPEEEIINQERPKDYYFASYSADQKLQFQQSSIDYDVIIQESTKILEDDLRIRDKWPYCQGRIIDLYKHNARIELEQQKELKIKKRRPGQKQRAAKKLALERTKERDTKAREIKKQLKKKFHKRGGKKNKKKVPLNPLAKAGSTPKFRTE |
